Results as given in publication PMC2475507.
No constants are given. Whether binding was seen depends on the method and setting. Binding seen in cells or lysates may run through a third protein. Some binding calls cover weakened binding; strength is not graded here.

Protein sequences, listed by entry. Tags and fused reporters are not part of them.
UniProt Q00987: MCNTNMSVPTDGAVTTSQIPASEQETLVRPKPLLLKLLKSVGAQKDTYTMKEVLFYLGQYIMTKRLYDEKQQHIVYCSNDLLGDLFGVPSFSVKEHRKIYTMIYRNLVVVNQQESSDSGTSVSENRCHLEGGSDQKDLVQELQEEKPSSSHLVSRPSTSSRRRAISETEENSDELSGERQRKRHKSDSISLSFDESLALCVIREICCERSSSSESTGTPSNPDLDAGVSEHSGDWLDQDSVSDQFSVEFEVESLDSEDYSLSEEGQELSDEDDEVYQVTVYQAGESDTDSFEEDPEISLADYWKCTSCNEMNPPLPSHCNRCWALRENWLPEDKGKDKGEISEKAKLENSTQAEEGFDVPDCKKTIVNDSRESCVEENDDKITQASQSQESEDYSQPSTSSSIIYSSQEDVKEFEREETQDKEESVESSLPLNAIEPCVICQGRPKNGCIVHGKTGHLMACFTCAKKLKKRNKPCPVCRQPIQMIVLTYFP
UniProt P98177: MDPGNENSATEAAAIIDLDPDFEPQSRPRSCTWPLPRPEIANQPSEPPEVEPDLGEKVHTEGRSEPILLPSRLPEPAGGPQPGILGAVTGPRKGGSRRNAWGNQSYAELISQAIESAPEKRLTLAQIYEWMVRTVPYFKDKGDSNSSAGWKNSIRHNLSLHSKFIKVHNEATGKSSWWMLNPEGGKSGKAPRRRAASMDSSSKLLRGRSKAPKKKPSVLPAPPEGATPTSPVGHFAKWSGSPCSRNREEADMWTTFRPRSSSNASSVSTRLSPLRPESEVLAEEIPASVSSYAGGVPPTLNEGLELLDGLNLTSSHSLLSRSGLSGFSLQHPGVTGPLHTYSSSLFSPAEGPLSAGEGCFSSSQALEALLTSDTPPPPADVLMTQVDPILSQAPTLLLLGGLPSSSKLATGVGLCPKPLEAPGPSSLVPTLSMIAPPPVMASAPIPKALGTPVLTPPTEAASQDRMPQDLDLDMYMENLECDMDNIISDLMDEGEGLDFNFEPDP

Experiments:
Flag-Mdm2 = Flag-Mdm2 (UniProt Q00987); experiment: co-IP; tagged FOXO4 and tagged Mdm2 co-expressed in HEK293T cells; precipitated with Flag antibody pre-coupled to Protein-A Sepharose; Co-IP buffer 20 mM Tris-HCl pH 8.0, 1% NP-40, 10% glycerol, 1 mM MgCl2, 1 mM EDTA, 150 mM NaCl; western blot
Flag-FOXO4 = Flag-FOXO4 (UniProt P98177); experiment: as above
[1] = target: endogenous Mdm2 (human (endogenous in HEK293T)) (UniProt Q00987); experiment: co-IP; endogenous proteins of HEK293T cells; precipitated for FOXO4, Mdm2 or isotype controls; cells treated with 200 µM hydrogen peroxide for 15 min before lysis; Co-IP buffer 20 mM Tris-HCl pH 8.0, 1% NP-40, 10% glycerol, 1 mM MgCl2, 1 mM EDTA, 150 mM NaCl
[2] = target: endogenous FOXO4 (human (endogenous in HEK293T)) (UniProt P98177); experiment: as above

Q: Which binding (Flag-Mdm2) does the source give for HA-FOXO4 (from UniProt P98177 1-505) here?
A: binds

Q: Which binding (Flag-FOXO4) does the source give for “Myc-Mdm2 (from UniProt Q00987 1-491) (enzyme)” here?
A: binds

Q: Which binding [1] does the source give for “endogenous FOXO4 (from UniProt P98177 1-505)” here?
A: binds

Q: “endogenous Mdm2 (from UniProt Q00987 1-491) (enzyme)” was tested. Which binding [2] did it give?
A: binds
